# Laboratory results published in the supplement of paper PMC8728848.
# The list shows a part of the results.
# B1: Clec18Av1 (Homo sapiens), A5D8T8 (protein)
# chain: MLHPETSPGRGHLLAVLLALLGTAWAEVWPPQLQEQAPMAGALNRKESFLLLSLHNRLRSWVQPPAADMRRLDWSDSLAQLAQARAALCGTPTPSLASGLWRTLQVGWNMQLLPAGLVSFVEVVSLWFAEGQRYSHAAGECARNATCTHYTQLVWATSSQLGCGRHLCSAGQAAIEAFVCAYSPRGNWEVNGKTIVPYKKGAWCSLCTASVSGCFKAWDHAGGLCEVPRNPCRMSCQNHGRLNISTCHCHCPPGYTGRYCQVRCSLQCVHGRFREEECSCVCDIGYGGAQCATKVHFPFHTCDLRIDGDCFMVSSEADTYYRARMKCQRKGGVLAQIKSQKVQDILAFYLGRLETTNEVIDSDFETRNFWIGLTYKTAKDSFRWATGEHQAFTSFAFGQPDNHGFGNCVELQASAAFNWNDQRCKTRNRYICQFAQEHISRWGPGS
# Assays:
# Test in all cases: glycan array binding signal (z-score within array); higher = stronger binding
# Settings in all cases: glycan notation: IUPAC condensed, linker removed
# [1] = biological target: Fuc(a1-2)Gal(b1-4)GlcNAc(b1-3)Gal(b1-4)GlcNAc(b1-3)Gal(b1-4)GlcNAc
# Procedure, shortened: (§1)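 Arrays were curated from the Consortium for Functional Glycomics database, 3228 in total, and kept only where the protein sequence was available. Binding is expressed as a within-array Z-score. This score was averaged across arrays of the same protein sequence at different concentrations or buffers and across linkers, and negative values can be read as non-binding.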
# [2] = biological target: Fuc(a1-2)Gal(b1-4)GlcNAc(b1-3)GalNAc
# Procedure, shortened: as §1
# [3] = biological target: Fuc(a1-2)Gal(b1-4)GlcNAc(b1-3)[Fuc(a1-2)Gal(b1-4)GlcNAc(b1-6)]GalNAc
# Procedure, shortened: as §1
# [4] = biological target: Fuc(a1-2)Gal(b1-4)GlcNAc(b1-3)[Fuc(a1-3)[Gal(b1-4)]GlcNAc(b1-6)]Gal(b1-4)Glc
# Procedure, shortened: as §1
# [5] = biological target: Fuc(a1-2)Gal(b1-4)GlcNAc(b1-6)GalNAc
# Procedure, shortened: as §1
# [6] = biological target: Fuc(a1-2)Gal(b1-4)GlcNAc6S
# Procedure, shortened: as §1
# [7] = biological target: Fuc(a1-2)Gal(b1-4)[Fuc(a1-3)]GlcNAc
# Procedure, shortened: as §1
# [8] = biological target: Fuc(a1-2)Gal(b1-4)[Fuc(a1-3)]GlcNAc(b1-2)Man(a1-3)[Fuc(a1-2)Gal(b1-4)[Fuc(a1-3)]GlcNAc(b1-2)Man(a1-6)]Man(b1-4)GlcNAc(b1-4)[Fuc(a1-6)]GlcNAc
# Procedure, shortened: as §1
# [9] = biological target: Fuc(a1-2)Gal(b1-4)[Fuc(a1-3)]GlcNAc(b1-2)[Fuc(a1-2)Gal(b1-4)[Fuc(a1-3)]GlcNAc(b1-4)]Man(a1-3)[Fuc(a1-2)Gal(b1-4)[Fuc(a1-3)]GlcNAc(b1-2)Man(a1-6)]Man(b1-4)GlcNAc(b1-4)GlcNAc
# Procedure, shortened: as §1
# [10] = biological target: Fuc(a1-2)Gal(b1-4)[Fuc(a1-3)]GlcNAc(b1-3)Gal(b1-4)[Fuc(a1-3)]GlcNAc
# Procedure, shortened: as §1
# [11] = biological target: Fuc(a1-2)Gal(b1-4)[Fuc(a1-3)]GlcNAc(b1-3)Gal(b1-4)[Fuc(a1-3)]GlcNAc(b1-3)Gal(b1-4)[Fuc(a1-3)]GlcNAc
# Procedure, shortened: as §1
# [12] = biological target: Fuc(a1-2)Gal(b1-4)[Fuc(a1-3)]GlcNAc(b1-3)GalNAc
# Procedure, shortened: as §1
# [13] = biological target: Fuc(a1-2)Gal(b1-4)[Fuc(a1-3)]GlcNAc(b1-3)[Neu5Ac(a2-6)Gal(b1-4)GlcNAc(b1-6)]Gal(b1-4)Glc
# Procedure, shortened: as §1
# [14] = biological target: Fuc(a1-2)Gal3S(b1-4)GlcNAc
# Procedure, shortened: as §1
# [15] = biological target: Fuc(a1-2)Gal6S(b1-3)GlcNAc
# Procedure, shortened: as §1
# [16] = biological target: Fuc(a1-2)Gal6S(b1-3)GlcNAc6S
# Procedure, shortened: as §1
# Fuc(a1-2)Gal6S(b1-4)Glc = biological target: Fuc(a1-2)Gal6S(b1-4)Glc
# Procedure, shortened: as §1
# [17] = biological target: Fuc(a1-2)Gal6S(b1-4)Glc6S
# Procedure, shortened: as §1
# Fuc(a1-2)[Gal(a1-3)]Gal = biological target: Fuc(a1-2)[Gal(a1-3)]Gal
# Procedure, shortened: as §1
# [18] = biological target: Fuc(a1-2)[Gal(a1-3)]Gal(b1-3)GalNAc
# Procedure, shortened: as §1
# [19] = biological target: Fuc(a1-2)[Gal(a1-3)]Gal(b1-3)GalNAc(b1-3)Gal(a1-4)Gal(b1-4)Glc
# Procedure, shortened: as §1
# [20] = biological target: Fuc(a1-2)[Gal(a1-3)]Gal(b1-3)GlcNAc
# Procedure, shortened: as §1
# [21] = biological target: Fuc(a1-2)[Gal(a1-3)]Gal(b1-3)GlcNAc(b1-2)Man(a1-3)[Fuc(a1-2)[Gal(a1-3)]Gal(b1-3)GlcNAc(b1-2)Man(a1-6)]Man(b1-4)GlcNAc(b1-4)GlcNAc
# Procedure, shortened: as §1
# [22] = biological target: Fuc(a1-2)[Gal(a1-3)]Gal(b1-3)GlcNAc(b1-2)Man(a1-3)[Fuc(a1-2)[Gal(a1-3)]Gal(b1-3)GlcNAc(b1-2)Man(a1-6)]Man(b1-4)GlcNAc(b1-4)[Fuc(a1-6)]GlcNAc
# Procedure, shortened: as §1
# [23] = biological target: Fuc(a1-2)[Gal(a1-3)]Gal(b1-3)GlcNAc(b1-3)GalNAc
# Procedure, shortened: as §1
# [24] = biological target: Fuc(a1-2)[Gal(a1-3)]Gal(b1-3)GlcNAc(b1-6)GalNAc
# Procedure, shortened: as §1
# [25] = biological target: Fuc(a1-2)[Gal(a1-3)]Gal(b1-4)Glc
# Procedure, shortened: as §1
# [26] = biological target: Fuc(a1-2)[Gal(a1-3)]Gal(b1-4)GlcNAc
# Procedure, shortened: as §1
# [27] = biological target: Fuc(a1-2)[Gal(a1-3)]Gal(b1-4)GlcNAc(b1-2)Man
# Procedure, shortened: as §1
# [28] = biological target: Fuc(a1-2)[Gal(a1-3)]Gal(b1-4)GlcNAc(b1-2)Man(a1-3)[Fuc(a1-2)[Gal(a1-3)]Gal(b1-4)GlcNAc(b1-2)Man(a1-6)]Man(b1-4)GlcNAc(b1-4)GlcNAc
# Procedure, shortened: as §1
binder,measurement,setting,value
B1,glycan array binding signal (z-score),[1],-0.81
same,glycan array binding signal (z-score),[2],0.829
same,glycan array binding signal (z-score),[3],-0.032
same,glycan array binding signal (z-score),[4],-0.443
same,glycan array binding signal (z-score),[5],0.166
same,glycan array binding signal (z-score),[6],0.376
same,glycan array binding signal (z-score),[7],-0.818
same,glycan array binding signal (z-score),[8],0.083
same,glycan array binding signal (z-score),[9],-0.666
same,glycan array binding signal (z-score),[10],-0.839
same,glycan array binding signal (z-score),[11],-0.815
same,glycan array binding signal (z-score),[12],0.606
same,glycan array binding signal (z-score),[13],-0.622
same,glycan array binding signal (z-score),[14],0.478
same,glycan array binding signal (z-score),[15],-0.35
same,glycan array binding signal (z-score),[16],1.5
same,glycan array binding signal (z-score),Fuc(a1-2)Gal6S(b1-4)Glc,2.53
same,glycan array binding signal (z-score),[17],-0.08
same,glycan array binding signal (z-score),Fuc(a1-2)[Gal(a1-3)]Gal,-0.827
same,glycan array binding signal (z-score),[18],-0.089
same,glycan array binding signal (z-score),[19],-0.861
same,glycan array binding signal (z-score),[20],-0.136
same,glycan array binding signal (z-score),[21],0.049
same,glycan array binding signal (z-score),[22],-0.406
same,glycan array binding signal (z-score),[23],0.04
same,glycan array binding signal (z-score),[24],-0.361
same,glycan array binding signal (z-score),[25],-0.793
same,glycan array binding signal (z-score),[26],-0.69
same,glycan array binding signal (z-score),[27],-0.057
same,glycan array binding signal (z-score),[28],3.05
